In US10712352B2, “Methods and devices for assessing in vivo toxic levels of bilirubin and diagnosing increased risk of bilirubin neurotoxicity” (NEOMETRIX DX, priority 2018, dated 2020):
For at least one compound, name, drawing or mass did not settle the structure.

The chains behind the UniProt entries cited, without tags or fusion partners. Residues count along the entry.
UniProt P02768, 25-609: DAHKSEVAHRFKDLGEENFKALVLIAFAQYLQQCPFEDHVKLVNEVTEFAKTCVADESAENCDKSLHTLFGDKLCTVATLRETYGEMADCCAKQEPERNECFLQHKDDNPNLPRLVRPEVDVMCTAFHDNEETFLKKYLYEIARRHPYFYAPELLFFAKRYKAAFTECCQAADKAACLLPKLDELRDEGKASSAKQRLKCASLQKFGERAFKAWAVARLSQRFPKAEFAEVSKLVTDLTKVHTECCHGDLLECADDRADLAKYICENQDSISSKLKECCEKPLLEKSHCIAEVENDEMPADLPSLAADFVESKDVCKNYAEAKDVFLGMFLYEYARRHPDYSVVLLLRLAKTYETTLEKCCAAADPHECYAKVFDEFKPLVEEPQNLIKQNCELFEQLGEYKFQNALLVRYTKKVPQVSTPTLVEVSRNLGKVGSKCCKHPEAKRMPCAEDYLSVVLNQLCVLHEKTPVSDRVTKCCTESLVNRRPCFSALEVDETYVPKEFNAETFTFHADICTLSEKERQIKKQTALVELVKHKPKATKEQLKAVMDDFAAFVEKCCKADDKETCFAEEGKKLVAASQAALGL

Legend:
[1] = biological target: human defatted albumin (Homo sapiens, UniProt P02768); test: Bilirubin binding isotherm in artificial serum containing human defatted albumin (peroxidase test)
Method: FIG. 5 illustrates the change in BFree (black dots) as BTotal increases. The negative intercept of 1/BFree versus 1/BTotal, i.e. KA, is […] and the negative slope/intercept, i.e. BTmax, is 37.5 mg/dL. The BTmax and KA in Table 3 are calculated as described above using the lowest BTotal (8.3 mg/dL) and BFree (0.51 μg/dL) paired with each of the other five measures of BTotal and BFree. The mean BTmax and KA of all 15 possible pairings in TABLE 4 are 39.1 mg/dL and 0.56 dL/μg, respectively.
Non-linear regression analysis of the molar ratios versus the BFree from TABLE 3 were used to determine the best fit K1 (0.93 dL/μg) and K2 (0.04 dL/μg) using the stoichiometric equation
(§1) This test is used clinically in Japan.
(§2) BFree is obtained by measuring BFss at the additional HRP concentration and using […]

[2] = biological target: human albumin (Homo sapiens, UniProt P02768); test: Bilirubin binding before and after adding sulfisoxazole to a bilirubin/human albumin sample; details: 3.0 g/dL albumin; without or with sulfa
Description: The clinically relevant quantification of bilirubin binding are the mass action variables above (BTotal, BFree, BTotal_2, BFree_2, BTmax, and KA) constitute a Bilirubin Binding Panel (BBP). Optionally, BTmax and KA can be used to determine whether a newborn binds bilirubin normally.
Measuring Total and Unbound Bilirubin (BTotal and BFree): The peroxidase test (see, e.g., Jacobsen J, Wennberg R P. Determination of unbound bilirubin in the serum of newborns. Clin Chem 1974; 20:783-789) measures both BTotal and BFree. This test is used clinically in Japan. […] The light absorbance at 440 nm (no albumin) or 460 nm (albumin present) decreases as bilirubin is oxidized, and the reaction rate constant, Kp, can be determined using known bilirubin and HRP concentrations in solutions without albumin present (i.e. all the bilirubin is unbound or “free”) as shown in the equivalent velocity equations below: […]
BTotal is calculated from the absorbance prior to adding HRP and H2O2 and BFree from the change in absorbance following addition of HRP/H2O2 as further described below. […]
BTotal is calculated by dividing the initial absorbance by the known extinction coefficient (0.827/cm light path length for BTotal in […]) and BFree is calculated from the change in absorbance at 460 nm after adding HRP/H2O2. […]

[3] = test system: plasma bilirubin binding sites (e.g. albumin); test: Bilirubin binding panel (peroxidase test, before and after bilirubin enrichment) in plasma of 31 newborns <28 weeks gestation; parameters: species or system human
Description: [formula] can be readily solved by for BTmax and KA by measuring BTotal and BFree before and after enrichment of the sample with bilirubin to provide BTotal, BFree, and BTotal_2, BFree_2. These provide two equations with two unknowns (BTmax and KA), that can be solved for BTmax as shown below:
as §1, §2

[4] = best fit, non-linear regression, stoichiometric two-site model
[5] = linear analysis of the isotherm, albumin 3.0 g/dL
[6] = pairing BTotal 8.3 with 18.5 mg/dL
[7] = pairing BTotal 8.3 with 22.2 mg/dL
[8] = pairing BTotal 8.3 with 28.3 mg/dL
[9] = pairing BTotal 8.3 with 31.3 mg/dL

C=CC1=C(C)/C(=C/c2[nH]c(Cc3[nH]c(/C=C4\NC(=O)C(C)=C4C=C)c(C)c3CCC(=O)O)c(CCC(=O)O)c2C)NC1=O [bilirubin]
mean BTmax of all 15 possible pairings ([1]; albumin 3.0 g/dL): 39.1 mg/dL | mean KA of all 15 possible pairings ([1]; albumin 3.0 g/dL): 0.56 dL/µg | K1, equilibrium association constant for albumin binding one bilirubin [1, 4]: 0.93 dL/µg | K2, equilibrium association constant for albumin binding two bilirubin [1, 4]: 0.04 dL/µg | BTmax, negative slope/intercept of 1/BFree versus 1/BTotal [1, 5]: 37.5 mg/dL | KA, negative intercept of 1/BFree versus 1/BTotal [1, 5]: 0.53 µg/dL | BTmax ([1]; pairing BTotal 8.3 with 11.7 mg/dL): 24.3 mg/dL | BTmax [1, 6]: 39.1 mg/dL | KA [1, 6]: 0.53 dL/µg | BTmax [1, 7]: 40.8 mg/dL | KA [1, 7]: 0.50 dL/µg | BTmax [1, 8]: 36.4 mg/dL | KA [1, 8]: 0.58 dL/µg | BTmax [1, 9]: 36.9 mg/dL | KA [1, 9]: 0.57 dL/µg | BTmax [2]: 24.3 mg/dL | BTmax (maximum total bilirubin concentration) ([3]; 25th-75th percentile): 14.3 to 24.8 mg/dL | KA (equilibrium association constant) ([3]; 25th-75th percentile): 0.75 to 2.20 dL/µg | BTmax (maximum total bilirubin concentration) ([3]; mean): 23.1 mg/dL | KA (equilibrium association constant) ([3]; mean): 1.97 dL/µg | BTmax (maximum total bilirubin concentration) ([3]; median): 22.0 mg/dL | BTmax (maximum total bilirubin concentration) ([3]; range): 8.0 to 118.1 mg/dL | KA (equilibrium association constant) ([3]; range): 0.07 to 0.70 dL/µg
